PubChem BioAssay AID1259254 | NCATS, 2017
Here is one part, drawn at random, of about 59,000 reagents tested. About 1,550 of all reagents (2.6%) count as active. 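G2 share is only a proxy for re-replication; each gene was hit by three separate siRNAs, and active genes were retested.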 A number with no mark means an inactive call. The numbers tell different reagents against one gene apart. Not all columns of the deposit are shown. Not given: the amount of reagent.

Screen: 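Genome-wide screen for genes that prevent DNA re-replication in cancer cells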 (primary screen)
Cells: human HCT116 colorectal cancer cells
Reagent: single siRNA against human genes
Time to read-out: 3 days
Measured: 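Imaged Hoechst DNA stain sorts each cell into a cycle phase by DNA amount; per plate, G2 fraction set to 0% for non-targeting and 100% for GMNN siRNA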
Reading the numbers: G2 robust z-score: higher = more G2 cells, more excess DNA replication
Rule for the call: 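An siRNA counts as active if its G2 robust z-score lies at least 5 MADs above the screen median; here such calls match roughly 38% of GMNN control or more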

G2 robust z-score, by target and reagent
SH2D3A: #1 0.64; #2 0.194; #3 -0.729
TIAM2: #1 -0.912; #2 1.76; #3 -0.122
TES: #1 2.23; #2 -0.532; #3 -0.573
RSPH4A: #1 2.79; #2 4.42; #3 1.58
RAB24: #1 -0.437; #2 -1.03; #3 2.81
RMC1: #1 -1.1; #2 0.462; #3 -0.454
TNMD: #1 2.67; #2 -0.397; #3 -1.31
TTLL3: #1 -0.226; #2 -0.671; #3 3.52
NEK3: #1 2.57; #2 -0.0407; #3 -1.2
RPL31P13: #1 3.73; #2 -0.23; #3 1.71
DNAJC7: #1 -0.0613; #2 0.275; #3 0.297
CPLX4: #1 -0.626; #2 -0.481; #3 0.07
HSPB7: #1 -0.827; #2 -0.326; #3 -1.64
CRISPLD1: #1 3.1; #2 0.265; #3 0.0132
ZAN: #1 3.67; #2 2.13; #3 -0.976
THY1: #1 -1.36; #2 0.439; #3 -0.426
SHF: #1 -0.335; #2 0.254; #3 -0.616
TMEM260: #1 1.4; #2 0.0495; #3 2.26
ERP44: #1 1.02; #2 -0.589; #3 -0.82
XXYLT1: #1 -0.941; #2 -0.837; #3 -0.0849
JUN: #1 2.21; #2 0.485; #3 -1.28
PIGC: #1 2.41; #2 -0.874; #3 -0.0217
NPY5R: #1 2.89; #2 0.0873; #3 -0.404
CNN3P1: #1 -0.528; #2 1.01; #3 1.44
ZKSCAN8P1: #1 -0.508; #2 0.122; #3 0.418
SPIC: #1 -0.604; #2 1.54; #3 -0.408
CPSF1: #1 7.72 (active); #2 0.32; #3 11.2 (active)
GPRC5A: #1 0.289; #2 -1.38; #3 -0.14
THSD4: #1 -0.426; #2 -1.04; #3 1.4

Hits (from the list above):
G2 robust z-score, by target and reagent
CPSF1: #1 7.72 (active); #3 11.2 (active)
